From ChEMBL document CHEMBL1146131, “3D-QSAR studies of farnesyltransferase inhibitors: a comparative molecular field analysis approach” (Bioorg Med Chem Lett, 2006) come the findings set out here.

In this assay the target is Protein farnesyltransferase (Homo sapiens, UniProt P49354+P49356). Put plainly: Inhibition of FTase. The assay is classed as protein-complex assay.

Turning to `COc1cccc(-c2cc(C#N)ccc2COC(c2ccc(C#N)cc2)c2cncn2C)c1` (stereo unspecified), the IC50 was 355 nM.

A word on the IC50: it is the point on the concentration scale where inhibition reaches its midpoint. Low values mean greater potency, high ones weaker potency.
